Drug screen on melanoma cell lines: apoptosis marker

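The test systems are human melanoma cell lines, treated with a pair of drugs for 72 h and then stained and imaged. Values are the share of nuclei positive for cleaved PARP as a percentage of the same share in the DMSO control: 100 is the control level, higher means more apoptosis. Concentrations were fixed for each drug; these are the higher of two levels. No replicate spread is given; individual values may be noisy. The marker varies much from line to line, for technical or biological reasons.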
Only some of the drugs and lines screened are listed, without regard to their results.

Drug key:
sunitinib: CCN(CC)CCNC(=O)c1c(C)[nH]c(/C=C2\C(=O)Nc3ccc(F)cc32)c1C at 2000 nM
ENMD-2076: Cc1cc(Nc2cc(N3CCN(C)CC3)nc(/C=C/c3ccccc3)n2)n[nH]1 at 200 nM
L-779450: Oc1cc(-c2nc(-c3ccccc3)[nH]c2-c2ccncc2)ccc1Cl at 1000 nM
BI-D1870: CC(C)CCN1c2nc(Nc3cc(F)c(O)c(F)c3)ncc2N(C)C(=O)C1C (stereo not drawn) at 1000 nM
GW0742: Cc1cc(SCc2sc(-c3ccc(C(F)(F)F)c(F)c3)nc2C)ccc1OCC(=O)O at 10000 nM
midostaurin: CO[C@@H]1[C@H](N(C)C(=O)c2ccccc2)C[C@H]2O[C@]1(C)n1c3ccccc3c3c4c(c5c6ccccc6n2c5c31)C(=O)NC4 at 400 nM
U73122: COc1ccc2c(c1)CCC1C2CCC2(C)C(NCCCCCCN3C(=O)C=CC3=O)CCC12 (stereo not drawn) at 2000 nM

Pair | WM1716
L-779450 + U73122 | 18.1
L-779450 + midostaurin | 277
BI-D1870 + U73122 | 85.6
sunitinib + midostaurin | 78.1
midostaurin + U73122 | 202
ENMD-2076 + midostaurin | 114
BI-D1870 + midostaurin | 320
GW0742 + BI-D1870 | 74.7
BI-D1870 + L-779450 | 126
BI-D1870 + ENMD-2076 | 203
sunitinib + GW0742 | 91.7
sunitinib + BI-D1870 | 119
sunitinib + U73122 | 80.4
GW0742 + U73122 | 81.2
sunitinib + L-779450 | 69.6
L-779450 + GW0742 | 62.1
GW0742 + ENMD-2076 | 332
midostaurin + GW0742 | 413

Once more, the final 2:

Pair	WM1716
GW0742 + ENMD-2076	332
midostaurin + GW0742	413

Data from the primary screen of doi:10.1371/journal.pone.0140310, rounded.